# From PubChem BioAssay AID540256 (National Center for Advancing Translational Sciences (NCATS), 2011)
# The campaign covered roughly 300,000 compounds. About 3,700 (1.2%) were called active. Inconclusive means that the source gave no clear call. Such entries were picked first, then a sample of the others. Calls come from the whole dose curve; tested in HEK293 cells. Where the call is inconclusive, the potency comes from a doubtful curve fit.
# Assay: qHTS for Inhibitors of binding or entry into cells for Lassa Virus; note: nearly all actives have a fitted effect of over 50% in size
# Details: Lassa virus pseudotype entry inhibition, cell reporter; activity change, negative = inhibition: at 37.9 µM (top of the series) unless noted
# % is set by controls: 0 for no effect and ±100 for the full control effect; potency is the fitted concentration of half-maximal effect.
SMILES,Potency,"activity change, negative = inhibition"
CC(=O)c1cc(CC=C(C)C)c(O)cc1O,"inconclusive: 3.98 µM [activator, single point]",–
CCOC(=O)C(NC(C)=O)(Nc1ccc(S(=O)(=O)Nc2nccs2)cc1)C(F)(F)F (stereo unspecified),"inconclusive: 16.4 µM [activator, partial curve, poor fit]",–
O=C(CCc1ccc(S(=O)(=O)NC2CCCCC2)cc1)NCc1ccccn1,–,inactive: -1.45%
Cc1ccc([N+](=O)[O-])cc1N(CC(=O)Nc1ccc(S(=O)(=O)Nc2cccc(C(F)(F)F)c2)cc1)S(C)(=O)=O,"inconclusive: 18.4 µM [inhibitor, single point]",–
CN1CCN(Cc2nc3ccccc3c(=O)n2Cc2nc(-c3cccc([N+](=O)[O-])c3)cs2)CC1,"inconclusive: 12.6 µM [inhibitor, partial curve, poor fit]",–
CC(C)C(NC(=O)c1ccc2c(c1)OCO2)C(=O)N/N=C/c1cccs1 (stereo unspecified),"inconclusive: 5.01 µM [activator, partial curve, poor fit]",–
COCCC(=O)N1CCC(Oc2ccc(C(=O)N3CCCCC3CCO)cc2)CC1 (stereo unspecified),–,inactive: -9.33%
COc1ccc(CNC(=O)CCS(=O)(=O)c2ccc3c(c2)CCN3C(C)=O)cc1,–,inactive: -18% [at 46.1 µM]
COc1ccc(Cl)cc1C(=O)Nc1nc2ccccc2[nH]1,"inconclusive: 1.12 µM [inhibitor, full curve, poor fit]",–
CCCCN(C(=O)C1CCCC1)C1CCS(=O)(=O)C1 (stereo unspecified),"inconclusive: 2.24 µM [inhibitor, partial curve, poor fit]",–
Cc1cc(C)n2nc(C(=O)NNC(=O)c3ccccc3)nc2n1,"inconclusive: 5.62 µM [inhibitor, single point]",–
COc1ccc(C)c2sc(NC(=O)CCS(=O)(=O)c3ccccc3)nc12,"inconclusive: 5.62 µM [inhibitor, full curve]",–
CC(=O)Nc1ccc(S(=O)(=O)NCCC(=O)OCC(=O)c2ccc(Br)cc2)cc1,"inconclusive: 0.282 µM [inhibitor, full curve, poor fit]",–
Cc1c(C(=O)N2CCOCC2)sc(NC(=O)Cc2ccccc2)c1C#N,"inconclusive: 2.82 µM [inhibitor, full curve, poor fit]",–
COc1ccc(N2CCN(c3nc4ccccc4nc3NS(=O)(=O)c3ccccc3)CC2)cc1,"inconclusive: 14.1 µM [inhibitor, single point]",–
CN(Cc1ccc(Cl)s1)C(=O)CCl,active: 11.2 µM,–
Cc1ccc2[nH]c(=O)c(CN(CCCN3CCOCC3)C(=O)Nc3cccc(Cl)c3)cc2c1,inactive,–
S=C(NCCc1ccccc1)N1CCCC1,"inconclusive: 12.6 µM [activator, partial curve, poor fit]",–
CCCCOc1ccc(C(=O)Nc2cccc(C)n2)cc1,"inconclusive: 35.5 µM [inhibitor, single point]",–
O=C1c2[nH]nc(-c3ccccc3O)c2C(c2cccc(O)c2)N1Cc1ccco1 (stereo unspecified),active: 0.501 µM,–
COc1ccc(OCCn2cc(C=O)c3ccccc32)cc1,"inconclusive: 35.5 µM [inhibitor, single point]",–

# Two entries from above, as tab-separated lines.
SMILES	Potency	activity change, negative = inhibition
CC(=O)c1cc(CC=C(C)C)c(O)cc1O	inconclusive: 3.98 µM [activator, single point]	–
CCOC(=O)C(NC(C)=O)(Nc1ccc(S(=O)(=O)Nc2nccs2)cc1)C(F)(F)F (stereo unspecified)	inconclusive: 16.4 µM [activator, partial curve, poor fit]	–

# Going on with the list:

SMILES,Potency,"activity change, negative = inhibition"
Clc1ccc(C=NN2CCCCCC2)cc1Cl,"inconclusive: 0.282 µM [activator, full curve, poor fit]",–
CSCCC(NS(=O)(=O)c1ccc(C)cc1)C(=O)NCCc1c[nH]c2ccccc12 (stereo unspecified),"inconclusive: 8.91 µM [inhibitor, partial curve, poor fit]",–
COc1ccc(S(=O)(=O)N2CCOCC2)cc1NS(=O)(=O)/C=C/c1ccccc1,"inconclusive: 8.91 µM [activator, partial curve, poor fit]",–
COc1ccc(N2CCN(C(=O)C(C)n3nc(C)c4sc5ccccc5c4c3=O)CC2)cc1 (stereo unspecified),"inconclusive: 35.5 µM [inhibitor, single point]",–
O=C(Nc1nc2c(F)cccc2s1)c1ccc(S(=O)(=O)N2CCCc3ccccc32)cc1,"inconclusive: 35.5 µM [activator, single point]",–
CCOC(=O)c1c(NC(=O)C2CCN(S(=O)(=O)c3cccs3)CC2)sc(C)c1C,–,inactive: -25.5%
COc1ccccc1NC(=O)CSc1nnc(-c2ccc(C)cc2)o1,"inconclusive: 0.58 µM [activator, single point]",–
COc1ccc(CCNC(=O)c2ccc(Cl)cc2)cc1,"inconclusive: 0.517 µM [inhibitor, full curve, poor fit]",–
COc1ccc(N(CCCN2C(=O)c3cccc4cccc(c34)C2=O)C(=O)c2cccc(OC)c2)cc1,"inconclusive: 35.5 µM [inhibitor, single point]",–
Cc1ccc(S(=O)(=O)CCC(=O)OCc2nnc(-c3ccccc3)o2)cc1,–,inactive: 11.3%
C=CCNC(=O)c1ccccc1NC(=O)c1ccc(Cl)c(S(=O)(=O)Nc2ccccc2)c1,"inconclusive: 32.6 µM [inhibitor, single point]",–
COc1cccc(N2CCN(C(=O)Nc3ccccc3Cl)CC2)c1,"inconclusive: 3.16 µM [inhibitor, single point]",–
Cc1ccc(-n2cc(-c3ccccc3)c3c(=O)[nH]cnc32)cc1,active: 14.6 µM,–
COc1ccc(NC(=O)c2cc3ccccc3o2)c(OC)c1,–,inactive: 1.76% [at 46.1 µM]
COC(=O)c1cccc(Cn2c(Cl)c(/C=N/NC(=O)c3ccccc3Cl)sc2=O)c1,"inconclusive: 32.6 µM [inhibitor, single point]",–
CC(=O)OC[C@H]1O[C@@H](Sc2cccc3cccnc23)[C@H](OC(C)=O)[C@@H](OC(C)=O)[C@H]1OC(C)=O,–,inactive: -21%
COc1cccc(NC(=O)CCC2CCN(C(=O)c3cncs3)CC2)c1,–,inactive: -0.943%
COc1ccc2ccccc2c1CNC(C)CCc1ccccc1 (stereo unspecified),"inconclusive: 20 µM [inhibitor, partial curve, poor fit]",–
COc1ccc2c(c1)CCc1c(C(=O)N3CC4(C)CC3CC(C)(C)C4)noc1-2 (stereo unspecified),"inconclusive: 0.13 µM [inhibitor, full curve, poor fit]",–
CC/C(=C\c1oc2cc3ccccc3cc2[n+]1CC)Nc1ccccc1,"inconclusive: 12.6 µM [inhibitor, partial curve, poor fit]",–
